Results published in the supplement of paper PMC12819154, “High-throughput peptide-centric local stability assay extends protein–ligand identification to membrane proteins, tissues and bacteria” (Nature Structural & Molecular Biology, 2025).
This is one part of the list. Most values lie at the level of the controls, where differences are scatter.

Sequences of proteins named here, by UniProt entry; tags and fusion partners are left off. A change or cut given only in a name is not applied to a line headed by its entry.
UniProt Q9NTK5, whole entry, looked up: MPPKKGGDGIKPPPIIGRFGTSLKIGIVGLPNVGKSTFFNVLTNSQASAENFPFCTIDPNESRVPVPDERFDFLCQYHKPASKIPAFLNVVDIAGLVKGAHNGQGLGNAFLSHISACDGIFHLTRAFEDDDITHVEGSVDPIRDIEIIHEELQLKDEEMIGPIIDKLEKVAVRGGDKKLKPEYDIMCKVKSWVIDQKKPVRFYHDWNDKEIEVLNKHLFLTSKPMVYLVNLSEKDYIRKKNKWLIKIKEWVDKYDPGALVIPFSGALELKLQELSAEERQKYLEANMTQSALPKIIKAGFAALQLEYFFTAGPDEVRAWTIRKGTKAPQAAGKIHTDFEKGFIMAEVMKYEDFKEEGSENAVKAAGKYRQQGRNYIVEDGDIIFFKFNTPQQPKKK
UniProt Q9NS37: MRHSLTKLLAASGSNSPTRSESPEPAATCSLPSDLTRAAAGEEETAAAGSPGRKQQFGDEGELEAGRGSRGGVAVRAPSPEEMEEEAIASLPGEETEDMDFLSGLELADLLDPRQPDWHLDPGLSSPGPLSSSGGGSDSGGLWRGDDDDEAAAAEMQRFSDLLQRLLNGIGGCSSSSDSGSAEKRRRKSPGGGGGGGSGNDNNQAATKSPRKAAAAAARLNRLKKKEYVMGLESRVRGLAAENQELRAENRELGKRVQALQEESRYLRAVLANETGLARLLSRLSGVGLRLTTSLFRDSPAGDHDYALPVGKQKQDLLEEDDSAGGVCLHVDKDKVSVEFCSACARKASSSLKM
UniProt Q9NSA3: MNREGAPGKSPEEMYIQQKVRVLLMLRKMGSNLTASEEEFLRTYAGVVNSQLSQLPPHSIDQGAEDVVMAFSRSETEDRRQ
UniProt Q9NP61: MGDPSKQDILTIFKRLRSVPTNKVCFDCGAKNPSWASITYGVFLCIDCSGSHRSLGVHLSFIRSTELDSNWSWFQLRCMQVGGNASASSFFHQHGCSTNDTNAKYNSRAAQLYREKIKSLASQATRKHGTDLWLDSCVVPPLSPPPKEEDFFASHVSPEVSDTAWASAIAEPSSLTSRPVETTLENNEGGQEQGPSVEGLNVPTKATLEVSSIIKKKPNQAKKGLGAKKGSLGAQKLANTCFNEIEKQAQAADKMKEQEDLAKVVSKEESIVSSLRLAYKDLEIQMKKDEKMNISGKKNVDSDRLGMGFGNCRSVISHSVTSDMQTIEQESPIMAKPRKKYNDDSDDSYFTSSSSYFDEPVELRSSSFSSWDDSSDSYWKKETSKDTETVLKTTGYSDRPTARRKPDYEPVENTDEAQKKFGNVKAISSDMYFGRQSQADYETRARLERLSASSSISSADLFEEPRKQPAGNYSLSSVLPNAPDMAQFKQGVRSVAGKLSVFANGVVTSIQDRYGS
UniProt Q9NWA0: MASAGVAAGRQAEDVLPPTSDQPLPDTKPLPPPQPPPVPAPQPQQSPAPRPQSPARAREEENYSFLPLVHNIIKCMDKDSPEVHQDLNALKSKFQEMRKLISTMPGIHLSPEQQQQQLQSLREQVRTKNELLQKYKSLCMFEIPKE
UniProt Q9HCU9: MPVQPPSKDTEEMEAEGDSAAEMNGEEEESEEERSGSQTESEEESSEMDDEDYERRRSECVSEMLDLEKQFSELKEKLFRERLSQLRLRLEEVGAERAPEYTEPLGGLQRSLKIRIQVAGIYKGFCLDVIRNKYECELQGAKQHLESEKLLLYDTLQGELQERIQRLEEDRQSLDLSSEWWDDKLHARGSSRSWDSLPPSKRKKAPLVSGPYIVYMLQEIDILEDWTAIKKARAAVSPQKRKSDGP
UniProt Q9NTZ6: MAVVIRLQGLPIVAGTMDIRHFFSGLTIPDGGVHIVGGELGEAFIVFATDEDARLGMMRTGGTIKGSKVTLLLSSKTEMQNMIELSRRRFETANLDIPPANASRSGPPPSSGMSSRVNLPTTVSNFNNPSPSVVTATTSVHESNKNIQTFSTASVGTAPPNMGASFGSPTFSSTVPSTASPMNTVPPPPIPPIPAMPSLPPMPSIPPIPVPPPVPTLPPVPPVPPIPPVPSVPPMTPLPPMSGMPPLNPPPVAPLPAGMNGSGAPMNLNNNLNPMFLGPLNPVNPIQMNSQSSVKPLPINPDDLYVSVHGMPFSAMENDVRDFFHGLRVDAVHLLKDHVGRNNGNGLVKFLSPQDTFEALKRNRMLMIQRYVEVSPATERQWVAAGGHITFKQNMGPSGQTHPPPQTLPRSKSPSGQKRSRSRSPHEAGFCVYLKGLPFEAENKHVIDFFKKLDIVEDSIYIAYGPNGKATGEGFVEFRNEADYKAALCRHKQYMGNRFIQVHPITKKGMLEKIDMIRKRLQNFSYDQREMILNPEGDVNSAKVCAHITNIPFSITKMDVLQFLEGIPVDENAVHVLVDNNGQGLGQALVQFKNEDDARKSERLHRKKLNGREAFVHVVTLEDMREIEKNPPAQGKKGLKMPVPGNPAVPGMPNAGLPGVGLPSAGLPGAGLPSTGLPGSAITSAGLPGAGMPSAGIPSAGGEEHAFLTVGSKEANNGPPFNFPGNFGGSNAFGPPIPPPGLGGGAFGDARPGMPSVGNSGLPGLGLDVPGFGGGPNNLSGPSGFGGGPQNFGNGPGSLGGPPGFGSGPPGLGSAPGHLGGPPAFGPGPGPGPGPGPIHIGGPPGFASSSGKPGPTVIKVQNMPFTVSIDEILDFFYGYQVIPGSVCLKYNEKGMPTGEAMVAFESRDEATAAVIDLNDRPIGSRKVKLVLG
UniProt Q9NWM3: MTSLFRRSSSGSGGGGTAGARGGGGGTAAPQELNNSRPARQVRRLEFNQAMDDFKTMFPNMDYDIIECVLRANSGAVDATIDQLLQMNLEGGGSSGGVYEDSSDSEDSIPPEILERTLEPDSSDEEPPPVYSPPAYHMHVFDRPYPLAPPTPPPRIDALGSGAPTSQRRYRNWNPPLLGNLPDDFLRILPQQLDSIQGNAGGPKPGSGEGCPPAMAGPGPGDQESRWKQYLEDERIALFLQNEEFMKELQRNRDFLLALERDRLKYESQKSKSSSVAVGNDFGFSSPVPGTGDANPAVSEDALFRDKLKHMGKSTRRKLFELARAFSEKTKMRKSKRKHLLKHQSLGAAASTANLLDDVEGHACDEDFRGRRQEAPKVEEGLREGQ
UniProt Q9NWS1: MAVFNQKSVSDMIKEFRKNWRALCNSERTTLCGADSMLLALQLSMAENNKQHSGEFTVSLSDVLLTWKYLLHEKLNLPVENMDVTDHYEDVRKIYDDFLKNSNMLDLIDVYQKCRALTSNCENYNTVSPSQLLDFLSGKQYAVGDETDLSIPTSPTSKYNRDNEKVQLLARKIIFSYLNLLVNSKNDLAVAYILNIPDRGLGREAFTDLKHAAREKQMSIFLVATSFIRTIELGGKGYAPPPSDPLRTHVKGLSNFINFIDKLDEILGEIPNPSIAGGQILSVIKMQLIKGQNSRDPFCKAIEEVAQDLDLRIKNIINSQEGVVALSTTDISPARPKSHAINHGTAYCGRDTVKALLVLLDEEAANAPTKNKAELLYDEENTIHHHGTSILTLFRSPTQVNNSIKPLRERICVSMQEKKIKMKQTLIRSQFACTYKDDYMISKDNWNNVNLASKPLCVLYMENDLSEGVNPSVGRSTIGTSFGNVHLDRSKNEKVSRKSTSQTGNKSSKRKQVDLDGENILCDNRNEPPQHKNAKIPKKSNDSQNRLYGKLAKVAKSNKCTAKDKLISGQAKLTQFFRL
UniProt Q9NTN3, whole entry, looked up: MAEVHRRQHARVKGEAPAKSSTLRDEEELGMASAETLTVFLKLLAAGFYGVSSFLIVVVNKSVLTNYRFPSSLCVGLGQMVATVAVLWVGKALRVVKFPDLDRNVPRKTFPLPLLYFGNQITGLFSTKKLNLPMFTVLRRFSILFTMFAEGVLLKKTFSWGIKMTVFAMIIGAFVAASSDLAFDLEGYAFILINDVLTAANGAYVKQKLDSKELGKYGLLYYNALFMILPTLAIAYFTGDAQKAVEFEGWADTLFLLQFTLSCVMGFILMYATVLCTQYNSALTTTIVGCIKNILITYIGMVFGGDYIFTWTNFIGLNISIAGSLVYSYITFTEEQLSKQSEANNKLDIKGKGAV
UniProt Q9NWM8: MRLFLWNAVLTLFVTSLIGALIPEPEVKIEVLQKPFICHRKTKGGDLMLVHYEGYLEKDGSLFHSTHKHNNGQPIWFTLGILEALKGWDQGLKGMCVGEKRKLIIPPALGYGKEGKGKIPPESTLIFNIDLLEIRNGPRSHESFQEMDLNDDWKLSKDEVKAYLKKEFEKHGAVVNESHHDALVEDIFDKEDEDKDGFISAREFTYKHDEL
UniProt Q9NR56: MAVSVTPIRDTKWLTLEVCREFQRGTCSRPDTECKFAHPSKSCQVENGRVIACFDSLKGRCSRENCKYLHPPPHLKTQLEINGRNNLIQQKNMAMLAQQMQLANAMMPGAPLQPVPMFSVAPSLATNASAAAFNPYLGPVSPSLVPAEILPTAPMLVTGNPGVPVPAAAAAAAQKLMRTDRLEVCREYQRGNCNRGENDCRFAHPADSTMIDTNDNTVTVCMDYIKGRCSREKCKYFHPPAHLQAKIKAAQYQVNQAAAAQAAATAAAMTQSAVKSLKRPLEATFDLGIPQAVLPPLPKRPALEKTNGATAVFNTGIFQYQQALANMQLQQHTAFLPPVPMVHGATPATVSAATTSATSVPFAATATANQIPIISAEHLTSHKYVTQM
UniProt Q9NVH2, whole entry: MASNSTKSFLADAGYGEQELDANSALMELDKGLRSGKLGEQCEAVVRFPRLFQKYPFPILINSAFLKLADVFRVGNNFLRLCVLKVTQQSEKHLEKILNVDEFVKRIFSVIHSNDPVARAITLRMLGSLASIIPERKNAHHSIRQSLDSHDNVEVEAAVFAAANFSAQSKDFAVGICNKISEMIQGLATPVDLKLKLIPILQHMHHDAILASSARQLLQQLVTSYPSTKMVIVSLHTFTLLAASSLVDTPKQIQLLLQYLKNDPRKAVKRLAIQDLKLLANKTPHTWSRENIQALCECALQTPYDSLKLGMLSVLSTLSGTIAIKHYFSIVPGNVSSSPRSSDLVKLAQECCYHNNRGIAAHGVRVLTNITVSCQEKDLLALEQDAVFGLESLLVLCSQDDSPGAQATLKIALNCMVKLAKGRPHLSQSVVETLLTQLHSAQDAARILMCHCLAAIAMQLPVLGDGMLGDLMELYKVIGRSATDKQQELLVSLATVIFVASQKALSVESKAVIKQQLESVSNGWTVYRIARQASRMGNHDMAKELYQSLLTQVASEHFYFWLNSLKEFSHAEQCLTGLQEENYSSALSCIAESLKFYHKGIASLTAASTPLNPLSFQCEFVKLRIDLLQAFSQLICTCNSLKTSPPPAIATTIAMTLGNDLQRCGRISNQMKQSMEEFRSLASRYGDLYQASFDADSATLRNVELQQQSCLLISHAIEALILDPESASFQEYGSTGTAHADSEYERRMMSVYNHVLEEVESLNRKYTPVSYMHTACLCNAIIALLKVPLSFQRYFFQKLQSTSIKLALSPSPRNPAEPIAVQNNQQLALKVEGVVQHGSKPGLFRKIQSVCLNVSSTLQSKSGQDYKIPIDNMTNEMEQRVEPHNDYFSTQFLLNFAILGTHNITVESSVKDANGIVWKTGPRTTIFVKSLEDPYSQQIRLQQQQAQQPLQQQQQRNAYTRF
UniProt Q9NUG6, whole entry: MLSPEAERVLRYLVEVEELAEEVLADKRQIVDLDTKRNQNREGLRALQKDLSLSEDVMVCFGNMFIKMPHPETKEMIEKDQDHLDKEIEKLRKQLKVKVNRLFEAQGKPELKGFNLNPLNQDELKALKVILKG
UniProt Q9NSD4: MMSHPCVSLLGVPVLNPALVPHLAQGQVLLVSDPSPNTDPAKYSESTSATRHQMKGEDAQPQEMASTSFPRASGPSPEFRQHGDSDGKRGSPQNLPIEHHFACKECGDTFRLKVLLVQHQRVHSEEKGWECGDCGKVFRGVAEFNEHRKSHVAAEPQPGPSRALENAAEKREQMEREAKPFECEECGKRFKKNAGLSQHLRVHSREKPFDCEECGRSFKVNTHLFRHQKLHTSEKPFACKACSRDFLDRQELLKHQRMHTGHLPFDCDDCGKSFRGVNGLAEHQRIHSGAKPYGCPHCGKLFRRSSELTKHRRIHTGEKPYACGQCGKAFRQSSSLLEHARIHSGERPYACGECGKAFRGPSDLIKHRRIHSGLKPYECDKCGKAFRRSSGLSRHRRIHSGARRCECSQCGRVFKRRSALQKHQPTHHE
UniProt Q9NWS0, whole entry: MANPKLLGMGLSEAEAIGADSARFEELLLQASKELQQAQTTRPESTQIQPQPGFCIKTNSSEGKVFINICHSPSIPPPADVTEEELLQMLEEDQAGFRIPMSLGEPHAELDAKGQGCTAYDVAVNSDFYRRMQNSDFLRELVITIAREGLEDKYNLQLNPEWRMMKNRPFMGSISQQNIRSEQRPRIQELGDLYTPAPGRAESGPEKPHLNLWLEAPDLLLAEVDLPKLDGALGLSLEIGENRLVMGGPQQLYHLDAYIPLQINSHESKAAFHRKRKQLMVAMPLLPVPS
UniProt Q9NU23: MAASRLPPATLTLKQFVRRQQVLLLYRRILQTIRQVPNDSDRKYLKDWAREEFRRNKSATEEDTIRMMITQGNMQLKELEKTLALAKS

The targets below were run with Cc1nc(Nc2ncc(C(=O)Nc3c(C)cccc3Cl)s2)cc(N2CCN(CCO)CC2)n1 [dasatinib] (assay: log2 fold change of tryptic peptide abundance, ligand vs vehicle (limited proteolysis) (log2 ratio); higher = more trypsin-susceptible (destabilized)). Conditions: ligand concentration: 5 uM; sample: K562 cleared lysate.

Target	log2 fold change
HMG20A (peptide sequence: KSNMEFEER, peptide start residue: 241) (UniProt Q9NP66)	-0.103
OLA1 (peptide sequence: LKPEYDIMCKVK, peptide start residue: 179) (UniProt Q9NTK5)	0.363
TYW1 (peptide sequence: HHTNPVGTEWR, peptide start residue: 426) (UniProt Q9NV66)	-0.245
UniProt Q9NS37 (peptide sequence: FSDLLQR, peptide start residue: 159)	0.334
EXOSC5 (peptide sequence: IGLPGVAEK, peptide start residue: 84) (UniProt Q9NQT4)	0.216
TUFT1 (peptide sequence: NLGDSLHR, peptide start residue: 127) (UniProt Q9NNX1)	-0.103
ECHDC1 (peptide sequence: LLHQTGLSLYSTSHGFYEEEVKK, peptide start residue: 23) (UniProt Q9NTX5)	-0.0959
PRMT8 (peptide sequence: EVDIYTVK, peptide start residue: 254) (UniProt Q9NR22)	0.0643
CTNNBIP1 (peptide sequence: SETEDRRQ, peptide start residue: 74) (UniProt Q9NSA3)	0.673
RIC8A (peptide sequence: LAELLVSVLEQGLPPSHR, peptide start residue: 46) (UniProt Q9NPQ8)	0.144
ARFGAP3 (peptide sequence: SLGVHLSFIR, peptide start residue: 55) (UniProt Q9NP61)	-0.363
C19orf12 (peptide sequence: LFNEAAAIIR, peptide start residue: 99) (UniProt Q9NSK7)	0.0781
MED9 (peptide sequence: SKFQEMR, peptide start residue: 92) (UniProt Q9NWA0)	0.103
BRMS1 (peptide sequence: QFSELKEK, peptide start residue: 70) (UniProt Q9HCU9)	0.209
GNL3L (peptide sequence: NELPTVAFK, peptide start residue: 192) (UniProt Q9NVN8)	-0.124
RBM12 (peptide sequence: VDAVHLLK, peptide start residue: 329) (UniProt Q9NTZ6)	-0.319
UniProt Q9NWM3 (peptide sequence: GGGGGTAAPQELNNSRPAR, peptide start residue: 22)	-0.142
UBQLN4 (peptide sequence: DKEEIVICDR, peptide start residue: 22) (UniProt Q9NRR5)	0.087
PARPBP (peptide sequence: SPTQVNNSIKPLR, peptide start residue: 396) (UniProt Q9NWS1)	0.343

Taken from the entries so far for reference:
Target	log2 fold change
TYW1 (peptide sequence: HHTNPVGTEWR, peptide start residue: 426) (UniProt Q9NV66)	-0.245
UniProt Q9NS37 (peptide sequence: FSDLLQR, peptide start residue: 159)	0.334

(cont.)

Target	log2 fold change
CASS4 (peptide sequence: QREDEHSSELLK, peptide start residue: 631) (UniProt Q9NQ75)	-0.588
UniProt Q9NP50 (peptide sequence: MFGFHKPK, peptide start residue: 1)	0.343
SLC35D1 (peptide sequence: QKLDSKELGK, peptide start residue: 207) (UniProt Q9NTN3)	0.248
GOPC (peptide sequence: RPMQAPPGHDQDSLKK, peptide start residue: 264) (UniProt Q9HD26)	0.179
ZNF277 (peptide sequence: LREILEQQQQER, peptide start residue: 155) (UniProt Q9NRM2)	-0.267
FKBP14 (peptide sequence: SHESFQEMDLNDDWK, peptide start residue: 140) (UniProt Q9NWM8)	0.128
SDF2L1 (peptide sequence: TGAELVTCGSVLKLLNTHHR, peptide start residue: 31) (UniProt Q9HCN8)	0.21
MBNL1 (peptide sequence: AVSVTPIRDTK, peptide start residue: 2) (UniProt Q9NR56)	-0.0655
UTP3 (peptide sequence: HLLTLKDDAVKK, peptide start residue: 324) (UniProt Q9NQZ2)	0.336
TMLHE (peptide sequence: SLTCAWQQHEDHFELK, peptide start residue: 48) (UniProt Q9NVH6)	-0.341
INTS7 (peptide sequence: LIPILQHMHHDAILASSAR, peptide start residue: 197) (UniProt Q9NVH2)	0.303
ISYNA1 (peptide sequence: ADNLIPGSR, peptide start residue: 192) (UniProt Q9NPH2)	-0.0881
PDRG1 (peptide sequence: LFEAQGKPELK, peptide start residue: 102) (UniProt Q9NUG6)	-0.417
ZNF275 (peptide sequence: GVNGLAEHQR, peptide start residue: 276) (UniProt Q9NSD4)	-0.232
BIN3 (peptide sequence: MDAFNQEKVNQIQK, peptide start residue: 92) (UniProt Q9NQY0)	-0.996
NDFIP2 (peptide sequence: AAAMAAAAAETSQR, peptide start residue: 194) (UniProt Q9NV92)	0.497
PIH1D1 (peptide sequence: RMQNSDFLR, peptide start residue: 131) (UniProt Q9NWS0)	-0.248
APOBEC3C (peptide sequence: MNPQIRNPMK, peptide start residue: 1) (UniProt Q9NRW3)	0.0608
LYRM2 (peptide sequence: LPPATLTLK, peptide start residue: 6) (UniProt Q9NU23)	0.335
